Results from article PMC7019889.
No constants are given. Whether binding was seen depends on the method and setting. Binding seen in cells or lysates may run through a third protein. Some entries that bind do so weakly or less than the wild type. For some assays here: Sequences can lack the tags named with a protein.

T1: HA-tagged USP29 (ubiquitin-specific peptidase 29) (UniProt Q9HBJ7)
T1 sequence: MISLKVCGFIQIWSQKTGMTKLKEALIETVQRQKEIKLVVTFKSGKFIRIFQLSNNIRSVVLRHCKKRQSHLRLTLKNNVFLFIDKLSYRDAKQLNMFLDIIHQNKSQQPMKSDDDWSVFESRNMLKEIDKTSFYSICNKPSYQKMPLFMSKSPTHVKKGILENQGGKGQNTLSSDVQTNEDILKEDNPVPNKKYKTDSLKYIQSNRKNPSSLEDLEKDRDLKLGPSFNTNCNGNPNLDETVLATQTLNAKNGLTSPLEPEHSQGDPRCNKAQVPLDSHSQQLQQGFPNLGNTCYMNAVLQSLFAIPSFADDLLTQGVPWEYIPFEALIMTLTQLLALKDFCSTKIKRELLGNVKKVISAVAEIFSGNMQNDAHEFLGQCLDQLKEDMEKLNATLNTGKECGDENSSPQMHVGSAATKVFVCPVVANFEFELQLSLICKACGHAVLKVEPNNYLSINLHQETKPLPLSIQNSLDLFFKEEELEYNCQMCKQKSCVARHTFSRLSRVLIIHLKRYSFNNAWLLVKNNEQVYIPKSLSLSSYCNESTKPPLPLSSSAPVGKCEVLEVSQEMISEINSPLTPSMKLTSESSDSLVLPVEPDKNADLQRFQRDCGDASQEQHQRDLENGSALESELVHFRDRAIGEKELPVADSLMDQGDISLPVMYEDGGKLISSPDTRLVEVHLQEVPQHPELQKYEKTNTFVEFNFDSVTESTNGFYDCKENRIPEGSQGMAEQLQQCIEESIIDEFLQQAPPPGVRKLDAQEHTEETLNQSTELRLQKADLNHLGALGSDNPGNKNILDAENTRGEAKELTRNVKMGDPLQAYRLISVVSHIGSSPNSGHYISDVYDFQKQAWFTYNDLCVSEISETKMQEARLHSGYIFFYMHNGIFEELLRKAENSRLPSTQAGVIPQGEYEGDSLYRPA

T2: endogenous MYBBP1A in SH-SY5Y cells (human (endogenous in SH-SY5Y)) (UniProt Q9BQG0)
T2 sequence: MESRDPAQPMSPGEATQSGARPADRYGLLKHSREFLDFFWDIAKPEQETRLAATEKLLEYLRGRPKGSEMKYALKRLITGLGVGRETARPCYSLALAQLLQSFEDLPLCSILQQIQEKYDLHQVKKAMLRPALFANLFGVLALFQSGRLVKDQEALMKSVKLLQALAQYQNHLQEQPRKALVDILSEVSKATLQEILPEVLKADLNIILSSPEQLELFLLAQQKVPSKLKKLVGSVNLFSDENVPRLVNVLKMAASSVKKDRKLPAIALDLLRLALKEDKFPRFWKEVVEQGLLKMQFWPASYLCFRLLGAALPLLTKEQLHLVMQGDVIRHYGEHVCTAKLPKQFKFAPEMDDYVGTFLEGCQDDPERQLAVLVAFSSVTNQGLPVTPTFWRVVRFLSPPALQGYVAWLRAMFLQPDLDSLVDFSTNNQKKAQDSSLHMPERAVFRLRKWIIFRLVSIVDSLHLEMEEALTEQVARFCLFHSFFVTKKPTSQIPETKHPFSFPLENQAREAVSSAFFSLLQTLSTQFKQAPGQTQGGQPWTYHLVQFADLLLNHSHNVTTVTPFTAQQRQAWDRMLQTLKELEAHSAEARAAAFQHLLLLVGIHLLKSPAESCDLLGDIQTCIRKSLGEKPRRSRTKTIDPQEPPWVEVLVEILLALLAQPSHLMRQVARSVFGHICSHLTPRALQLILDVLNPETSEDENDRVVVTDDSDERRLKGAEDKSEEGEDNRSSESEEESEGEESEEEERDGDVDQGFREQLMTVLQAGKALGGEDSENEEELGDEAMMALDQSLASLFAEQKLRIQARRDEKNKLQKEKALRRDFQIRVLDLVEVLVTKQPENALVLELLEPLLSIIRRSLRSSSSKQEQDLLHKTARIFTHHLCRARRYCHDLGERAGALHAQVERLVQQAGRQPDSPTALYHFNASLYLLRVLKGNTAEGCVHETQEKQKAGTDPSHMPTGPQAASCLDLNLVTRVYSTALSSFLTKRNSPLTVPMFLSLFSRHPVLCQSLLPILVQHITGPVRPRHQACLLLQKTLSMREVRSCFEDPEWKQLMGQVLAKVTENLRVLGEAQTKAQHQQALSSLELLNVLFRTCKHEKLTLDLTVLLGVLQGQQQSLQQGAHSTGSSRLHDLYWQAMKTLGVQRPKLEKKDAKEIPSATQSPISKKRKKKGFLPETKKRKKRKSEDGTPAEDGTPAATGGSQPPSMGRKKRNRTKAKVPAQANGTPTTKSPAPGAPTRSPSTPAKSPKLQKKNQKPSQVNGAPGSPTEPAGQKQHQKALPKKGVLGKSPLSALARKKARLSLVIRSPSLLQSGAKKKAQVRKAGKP


What was measured:
[1] = target: T1, HA-tagged USP29 (ubiquitin-specific peptidase 29); assay: co-IP; SH-SY5Y cells co-transfected with Flag-MYBBP1A and HA-USP29; lysis in RIPA buffer, lysate diluted 1:1 with PBS; immunoprecipitation with the indicated antibodies and protein A/G-agarose overnight at 4 °C, in both directions; immunoblot
[2] = target: T2, endogenous MYBBP1A in SH-SY5Y cells (human (endogenous in SH-SY5Y)); assay: co-IP; endogenous proteins in SH-SY5Y lysate (RIPA buffer); endogenous MYBBP1A immunoprecipitated, rabbit IgG as negative control; immunoblot

| binding [1] | binding [2] | Binder |
| --- | --- | --- |
| binds | – | Flag-tagged MYBBP1A (160 kDa myb-binding protein, Myb-binding protein 1α) (protein, UniProt Q9BQG0 1-1328) MESRDPAQPMSPGEATQSGARPADRYGLLKHSREFLDFFWDIAKPEQETRLAATEKLLEYLRGRPKGSEMKYALKRLITGLGVGRETARPCYSLALAQLLQSFEDLPLCSILQQIQEKYDLHQVKKAMLRPALFANLFGVLALFQSGRLVKDQEALMKSVKLLQALAQYQNHLQEQPRKALVDILSEVSKATLQEILPEVLKADLNIILSSPEQLELFLLAQQKVPSKLKKLVGSVNLFSDENVPRLVNVLKMAASSVKKDRKLPAIALDLLRLALKEDKFPRFWKEVVEQGLLKMQFWPASYLCFRLLGAALPLLTKEQLHLVMQGDVIRHYGEHVCTAKLPKQFKFAPEMDDYVGTFLEGCQDDPERQLAVLVAFSSVTNQGLPVTPTFWRVVRFLSPPALQGYVAWLRAMFLQPDLDSLVDFSTNNQKKAQDSSLHMPERAVFRLRKWIIFRLVSIVDSLHLEMEEALTEQVARFCLFHSFFVTKKPTSQIPETKHPFSFPLENQAREAVSSAFFSLLQTLSTQFKQAPGQTQGGQPWTYHLVQFADLLLNHSHNVTTVTPFTAQQRQAWDRMLQTLKELEAHSAEARAAAFQHLLLLVGIHLLKSPAESCDLLGDIQTCIRKSLGEKPRRSRTKTIDPQEPPWVEVLVEILLALLAQPSHLMRQVARSVFGHICSHLTPRALQLILDVLNPETSEDENDRVVVTDDSDERRLKGAEDKSEEGEDNRSSESEEESEGEESEEEERDGDVDQGFREQLMTVLQAGKALGGEDSENEEELGDEAMMALDQSLASLFAEQKLRIQARRDEKNKLQKEKALRRDFQIRVLDLVEVLVTKQPENALVLELLEPLLSIIRRSLRSSSSKQEQDLLHKTARIFTHHLCRARRYCHDLGERAGALHAQVERLVQQAGRQPDSPTALYHFNASLYLLRVLKGNTAEGCVHETQEKQKAGTDPSHMPTGPQAASCLDLNLVTRVYSTALSSFLTKRNSPLTVPMFLSLFSRHPVLCQSLLPILVQHITGPVRPRHQACLLLQKTLSMREVRSCFEDPEWKQLMGQVLAKVTENLRVLGEAQTKAQHQQALSSLELLNVLFRTCKHEKLTLDLTVLLGVLQGQQQSLQQGAHSTGSSRLHDLYWQAMKTLGVQRPKLEKKDAKEIPSATQSPISKKRKKKGFLPETKKRKKRKSEDGTPAEDGTPAATGGSQPPSMGRKKRNRTKAKVPAQANGTPTTKSPAPGAPTRSPSTPAKSPKLQKKNQKPSQVNGAPGSPTEPAGQKQHQKALPKKGVLGKSPLSALARKKARLSLVIRSPSLLQSGAKKKAQVRKAGKP |
| – | binds | endogenous USP29 in SH-SY5Y cells (enzyme, UniProt Q9HBJ7 1-922) MISLKVCGFIQIWSQKTGMTKLKEALIETVQRQKEIKLVVTFKSGKFIRIFQLSNNIRSVVLRHCKKRQSHLRLTLKNNVFLFIDKLSYRDAKQLNMFLDIIHQNKSQQPMKSDDDWSVFESRNMLKEIDKTSFYSICNKPSYQKMPLFMSKSPTHVKKGILENQGGKGQNTLSSDVQTNEDILKEDNPVPNKKYKTDSLKYIQSNRKNPSSLEDLEKDRDLKLGPSFNTNCNGNPNLDETVLATQTLNAKNGLTSPLEPEHSQGDPRCNKAQVPLDSHSQQLQQGFPNLGNTCYMNAVLQSLFAIPSFADDLLTQGVPWEYIPFEALIMTLTQLLALKDFCSTKIKRELLGNVKKVISAVAEIFSGNMQNDAHEFLGQCLDQLKEDMEKLNATLNTGKECGDENSSPQMHVGSAATKVFVCPVVANFEFELQLSLICKACGHAVLKVEPNNYLSINLHQETKPLPLSIQNSLDLFFKEEELEYNCQMCKQKSCVARHTFSRLSRVLIIHLKRYSFNNAWLLVKNNEQVYIPKSLSLSSYCNESTKPPLPLSSSAPVGKCEVLEVSQEMISEINSPLTPSMKLTSESSDSLVLPVEPDKNADLQRFQRDCGDASQEQHQRDLENGSALESELVHFRDRAIGEKELPVADSLMDQGDISLPVMYEDGGKLISSPDTRLVEVHLQEVPQHPELQKYEKTNTFVEFNFDSVTESTNGFYDCKENRIPEGSQGMAEQLQQCIEESIIDEFLQQAPPPGVRKLDAQEHTEETLNQSTELRLQKADLNHLGALGSDNPGNKNILDAENTRGEAKELTRNVKMGDPLQAYRLISVVSHIGSSPNSGHYISDVYDFQKQAWFTYNDLCVSEISETKMQEARLHSGYIFFYMHNGIFEELLRKAENSRLPSTQAGVIPQGEYEGDSLYRPA |
